Data as given in PubChem BioAssay AID1508597 (Cure First, 2020).

Purpose: 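Knock-downs altering ovarian cancer cell survival with or without PARP inhibitor rucaparib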 (primary screen)
Cells: human ovarian carcinoma lines grown from tumours: OCI-P5x (papillary serous) and OCI-C5x (clear cell)
Knock-down reagent: siRNA pool against human genes, 1.25 pmol siRNA per well
Timing: 72 h or 96 h, depending on the cell culture
Treatment: rucaparib 20 µM (about IC30) or vehicle, present until read-out
Rucaparib or vehicle: Rucaparib
Cell line: OCI-P5x (serous)
Read-out: 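ATP luminescence measured at 72 or 96 h according to the culture, then normalised and expressed as percent viability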
Direction: viability, normalised: higher = more viable cells remaining
Hit rule: 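Active when normalised viability falls below 80 percent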
Meaning of the calls: active = viability under 80%; inactive = viability 80% or more
This is an unselected part of the about 2,100 reagents, in one setting of the screen. 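Calls flag viability under 80% in either arm, not effects specific to rucaparib; the reference for percent is not stated.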 Entries without a mark were called inactive. Some reagents were tested in more than one well and are listed for each. The record does not give: the 100% reference.

no.	target	technical replicate	viability, normalised (%)
1	SATB2 (GeneID 23314)	1	33.2 (active)
2	SATB2 (GeneID 23314)	2	42.3 (active)
3	SATB2 (GeneID 23314)	3	47.6 (active)
4	NEK3 (GeneID 4752)	1	73.2 (active)
5	NEK3 (GeneID 4752)	2	63.8 (active)
6	NEK3 (GeneID 4752)	3	65.5 (active)
7	UTY (GeneID 7404)	1	50.6 (active)
8	UTY (GeneID 7404)	2	52.7 (active)
9	UTY (GeneID 7404)	3	50.2 (active)
10	RAC1 (GeneID 5879)	1	47.5 (active)
11	RAC1 (GeneID 5879)	2	52.6 (active)
12	RAC1 (GeneID 5879)	3	43.7 (active)
13	FAM131C (GeneID 348487)	1	74.7 (active)
14	FAM131C (GeneID 348487)	2	53.2 (active)
15	FAM131C (GeneID 348487)	3	79.6 (active)
16	THOC1 (GeneID 9984)	1	67.5 (active)
17	THOC1 (GeneID 9984)	2	71 (active)
18	THOC1 (GeneID 9984)	3	63.4 (active)
19	SS18L1 (GeneID 26039)	1	45.5 (active)
20	SS18L1 (GeneID 26039)	2	45.6 (active)
21	SS18L1 (GeneID 26039)	3	37.8 (active)
22	PMAIP1 (GeneID 5366)	1	32.5 (active)
23	PMAIP1 (GeneID 5366)	2	36.3 (active)
24	PMAIP1 (GeneID 5366)	3	35.5 (active)
25	PLCG1 (GeneID 5335)	1	60.6 (active)
26	PLCG1 (GeneID 5335)	2	63.1 (active)
27	PLCG1 (GeneID 5335)	3	70.3 (active)
28	SETD6 (GeneID 79918)	1	43.3 (active)
29	SETD6 (GeneID 79918)	2	55.9 (active)
30	SETD6 (GeneID 79918)	3	48.4 (active)
31	FNTB (GeneID 2342)	1	49.8 (active)
32	FNTB (GeneID 2342)	2	48.7 (active)
33	FNTB (GeneID 2342)	3	51.5 (active)
34	BRD8 (GeneID 10902)	1	55.3 (active)
35	BRD8 (GeneID 10902)	2	63.8 (active)
36	BRD8 (GeneID 10902)	3	74.5 (active)
37	ZMYND11 (GeneID 10771)	1	59.4 (active)
38	ZMYND11 (GeneID 10771)	2	47.6 (active)
39	ZMYND11 (GeneID 10771)	3	54.9 (active)
40	PLCH1 (GeneID 23007)	1	48.6 (active)
41	PLCH1 (GeneID 23007)	2	55.1 (active)
42	PLCH1 (GeneID 23007)	3	54.5 (active)
43	ETNK2 (GeneID 55224)	1	69.7 (active)
44	ETNK2 (GeneID 55224)	2	89.3
45	ETNK2 (GeneID 55224)	3	86.7
46	PIP5K1A (GeneID 8394)	1	102
47	PIP5K1A (GeneID 8394)	2	79.1 (active)
48	PIP5K1A (GeneID 8394)	3	83.5
49	MTRFR (GeneID 91574)	1	68.8 (active)
50	MTRFR (GeneID 91574)	2	75.6 (active)
51	MTRFR (GeneID 91574)	3	74.7 (active)
52	RNF168 (GeneID 165918)	1	40.2 (active)
53	RNF168 (GeneID 165918)	1	60.4 (active)
54	RNF168 (GeneID 165918)	2	40.5 (active)
55	RNF168 (GeneID 165918)	2	82.3
56	RNF168 (GeneID 165918)	3	47 (active)
57	RNF168 (GeneID 165918)	3	48.1 (active)
